PubChem BioAssay AID1259254 – NCATS, 2017
In all, the deposit lists about 59,000 reagents; shown is a random part of them. Over the whole deposit, about 1,550 (2.6%) are marked active. 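G2 share is only a proxy for re-replication; each gene was hit by three separate siRNAs, and active genes were retested.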 Raw values vary from plate to plate and are shown uncorrected. Reagents against one gene are numbered here. Not given: the amount of reagent.

- Assay: 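Genome-wide screen for genes that prevent DNA re-replication in cancer cells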 (primary screen)
- Cells: human HCT116 colorectal cancer cells
- Reagent: single siRNA against human genes
- Timing: 3 days
- Read-out: 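Imaged Hoechst DNA stain sorts each cell into a cycle phase by DNA amount; per plate, G2 fraction set to 0% for non-targeting and 100% for GMNN siRNA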
- Scale: G2 robust z-score and G2 cells, % of GMNN control: higher = more G2 cells, more excess DNA replication; raw share of cells in G2: higher = larger share of cells with G2 DNA content
- Hit rule: 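Active siRNAs have a G2 robust z of 5 or more median absolute deviations over the median, which in these data means about 38% or higher of GMNN control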

Target gene | reagent no. | G2 robust z-score | G2 cells, % of GMNN control | raw share of cells in G2 (%) | outcome
LY6K (GeneID 54742) | 1 | 0.7 | 7.89 | 6.43 | inactive
LY6K (GeneID 54742) | 2 | -0.422 | -0.00315 | 4.27 | inactive
LY6K (GeneID 54742) | 3 | -0.739 | -2.23 | 2.45 | inactive
DIP2C (GeneID 22982) | 1 | -0.869 | -3.15 | 3.75 | inactive
DIP2C (GeneID 22982) | 2 | -0.0578 | 2.56 | 5.19 | inactive
DIP2C (GeneID 22982) | 3 | -0.222 | 1.41 | 3.7 | inactive
GPR50 (GeneID 9248) | 1 | -0.701 | -1.96 | 5.14 | inactive
GPR50 (GeneID 9248) | 2 | -0.794 | -2.62 | 3.6 | inactive
GPR50 (GeneID 9248) | 3 | 0.394 | 5.74 | 5.03 | inactive
IL6ST (GeneID 3572) | 1 | 0.992 | 9.94 | 8.66 | inactive
IL6ST (GeneID 3572) | 2 | -1.57 | -8.09 | 2.61 | inactive
IL6ST (GeneID 3572) | 3 | -1.1 | -4.76 | 2.46 | inactive
PIRT (GeneID 644139) | 1 | 0.358 | 5.49 | 5.73 | inactive
PIRT (GeneID 644139) | 2 | 1.41 | 12.9 | 7.91 | inactive
PIRT (GeneID 644139) | 3 | 1.37 | 12.6 | 6.82 | inactive
TMEM229A (GeneID 730130) | 1 | -0.726 | -2.14 | 2.83 | inactive
TMEM229A (GeneID 730130) | 2 | -0.994 | -4.03 | 1.84 | inactive
TMEM229A (GeneID 730130) | 3 | 1.53 | 13.7 | 8.65 | inactive
EPG5 (GeneID 57724) | 1 | -0.466 | -0.315 | 4.22 | inactive
EPG5 (GeneID 57724) | 2 | 0.482 | 6.36 | 7.5 | inactive
EPG5 (GeneID 57724) | 3 | -0.349 | 0.51 | 3.19 | inactive
KYNUP2 (GeneID 729310) | 1 | 1.73 | 15.1 | 8.2 | inactive
KYNUP2 (GeneID 729310) | 2 | -0.194 | 1.6 | 3.73 | inactive
KYNUP2 (GeneID 729310) | 3 | 0.012 | 3.05 | 5.1 | inactive
LRRC57 (GeneID 255252) | 1 | -0.724 | -2.13 | 2.81 | inactive
LRRC57 (GeneID 255252) | 2 | 0.0512 | 3.33 | 4.27 | inactive
LRRC57 (GeneID 255252) | 3 | 1.51 | 13.6 | 7.54 | inactive
DYNC2H1 (GeneID 79659) | 1 | -0.33 | 0.642 | 5.7 | inactive
DYNC2H1 (GeneID 79659) | 2 | -0.0452 | 2.65 | 5.15 | inactive
DYNC2H1 (GeneID 79659) | 3 | -0.0592 | 2.55 | 5.73 | inactive
TRIM72 (GeneID 493829) | 1 | -0.664 | -1.71 | 4.29 | inactive
TRIM72 (GeneID 493829) | 2 | -0.291 | 0.921 | 4.62 | inactive
TRIM72 (GeneID 493829) | 3 | -0.626 | -1.44 | 5.28 | inactive
P3H2 (GeneID 55214) | 1 | 8.13 | 60.1 | 24 | active
P3H2 (GeneID 55214) | 2 | -1.02 | -4.23 | 4 | inactive
P3H2 (GeneID 55214) | 3 | -0.277 | 1.02 | 3.95 | inactive
ARCN1 (GeneID 372) | 1 | 1.02 | 10.2 | 7.78 | inactive
ARCN1 (GeneID 372) | 2 | 1.56 | 13.9 | 10 | inactive
ARCN1 (GeneID 372) | 3 | 1.12 | 10.8 | 8.4 | inactive
ABCC10 (GeneID 89845) | 1 | 1.41 | 12.9 | 11.7 | inactive
ABCC10 (GeneID 89845) | 2 | 0.599 | 7.18 | 8.05 | inactive
ABCC10 (GeneID 89845) | 3 | 0.00226 | 2.98 | 5.61 | inactive
ADORA3 (GeneID 140) | 1 | 2.65 | 21.6 | 12.1 | inactive
ADORA3 (GeneID 140) | 2 | 1.17 | 11.2 | 8.17 | inactive
ADORA3 (GeneID 140) | 3 | -1.15 | -5.12 | 3.25 | inactive
CADPS2 (GeneID 93664) | 1 | -0.888 | -3.28 | 1.96 | inactive
CADPS2 (GeneID 93664) | 2 | -0.307 | 0.811 | 3.45 | inactive
CADPS2 (GeneID 93664) | 3 | 0.274 | 4.89 | 5.24 | inactive
H2AC15 (GeneID 8330) | 1 | -0.324 | 0.684 | 5.43 | inactive
H2AC15 (GeneID 8330) | 2 | -0.503 | -0.569 | 3.67 | inactive
H2AC15 (GeneID 8330) | 3 | -0.753 | -2.33 | 2.52 | inactive
GALNT8 (GeneID 26290) | 1 | -0.953 | -3.73 | 2.77 | inactive
GALNT8 (GeneID 26290) | 2 | -0.0166 | 2.85 | 7.46 | inactive
GALNT8 (GeneID 26290) | 3 | 0.318 | 5.21 | 5.92 | inactive
MRGPRD (GeneID 116512) | 1 | -0.0861 | 2.36 | 6.69 | inactive
MRGPRD (GeneID 116512) | 2 | -1.04 | -4.33 | 3 | inactive
MRGPRD (GeneID 116512) | 3 | 2.16 | 18.2 | 8.83 | inactive
LOC644925 (retired record) (GeneID 644925) | 1 | 0.701 | 7.9 | 6.11 | inactive
LOC644925 (retired record) (GeneID 644925) | 2 | -0.565 | -1.01 | 2.85 | inactive
LOC644925 (retired record) (GeneID 644925) | 3 | 0.0929 | 3.62 | 5.02 | inactive
ARRB1 (GeneID 408) | 1 | 0.0576 | 3.37 | 5.87 | inactive
ARRB1 (GeneID 408) | 2 | 3.24 | 25.8 | 14.3 | inactive
ARRB1 (GeneID 408) | 3 | 1.02 | 10.2 | 7.77 | inactive
FOXB1 (GeneID 27023) | 1 | -0.613 | -1.35 | 3.74 | inactive
FOXB1 (GeneID 27023) | 2 | -0.447 | -0.174 | 3.93 | inactive
FOXB1 (GeneID 27023) | 3 | 0.962 | 9.73 | 10.6 | inactive
CDH15 (GeneID 1013) | 1 | 0.194 | 4.33 | 6.58 | inactive
CDH15 (GeneID 1013) | 2 | -0.631 | -1.47 | 3.59 | inactive
CDH15 (GeneID 1013) | 3 | -1.2 | -5.44 | 3.02 | inactive

Records listed so far whose target name starts with L or l (9):
Target gene | reagent no. | G2 robust z-score | G2 cells, % of GMNN control | raw share of cells in G2 (%) | outcome
LY6K (GeneID 54742) | 1 | 0.7 | 7.89 | 6.43 | inactive
LY6K (GeneID 54742) | 2 | -0.422 | -0.00315 | 4.27 | inactive
LY6K (GeneID 54742) | 3 | -0.739 | -2.23 | 2.45 | inactive
LRRC57 (GeneID 255252) | 1 | -0.724 | -2.13 | 2.81 | inactive
LRRC57 (GeneID 255252) | 2 | 0.0512 | 3.33 | 4.27 | inactive
LRRC57 (GeneID 255252) | 3 | 1.51 | 13.6 | 7.54 | inactive
LOC644925 (retired record) (GeneID 644925) | 1 | 0.701 | 7.9 | 6.11 | inactive
LOC644925 (retired record) (GeneID 644925) | 2 | -0.565 | -1.01 | 2.85 | inactive
LOC644925 (retired record) (GeneID 644925) | 3 | 0.0929 | 3.62 | 5.02 | inactive
